From article doi:10.1101/2020.04.23.057919 come the findings set out here.

By UniProt entry, the sequences of proteins in these tests, tags left out.
UniProt Q7M6Y2: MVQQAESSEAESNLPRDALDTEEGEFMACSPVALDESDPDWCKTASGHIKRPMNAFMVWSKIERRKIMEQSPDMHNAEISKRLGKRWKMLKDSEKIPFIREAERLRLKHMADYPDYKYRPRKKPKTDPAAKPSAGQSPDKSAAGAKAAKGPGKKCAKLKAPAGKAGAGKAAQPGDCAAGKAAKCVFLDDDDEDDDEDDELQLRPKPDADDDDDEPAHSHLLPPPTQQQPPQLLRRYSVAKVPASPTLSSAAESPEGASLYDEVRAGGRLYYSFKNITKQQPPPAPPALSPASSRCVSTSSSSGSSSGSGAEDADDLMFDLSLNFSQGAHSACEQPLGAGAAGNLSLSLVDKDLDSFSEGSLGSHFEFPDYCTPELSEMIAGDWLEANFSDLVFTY
UniProt Q91731: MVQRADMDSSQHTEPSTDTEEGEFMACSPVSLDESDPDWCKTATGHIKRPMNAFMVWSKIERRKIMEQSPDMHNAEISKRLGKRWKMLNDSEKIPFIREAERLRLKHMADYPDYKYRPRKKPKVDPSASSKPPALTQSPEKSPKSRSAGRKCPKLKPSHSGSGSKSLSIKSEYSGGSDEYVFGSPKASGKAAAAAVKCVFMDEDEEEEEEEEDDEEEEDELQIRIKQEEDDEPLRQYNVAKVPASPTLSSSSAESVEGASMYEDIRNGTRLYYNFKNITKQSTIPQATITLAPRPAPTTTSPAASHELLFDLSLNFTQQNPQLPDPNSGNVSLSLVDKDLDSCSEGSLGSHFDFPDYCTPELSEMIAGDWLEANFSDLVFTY

The target of assay [1] is mouse SOX11 with FLAG tag (mSOX11-FLAG) (mouse) (UniProt Q7M6Y2). The assay can be described thus: co-IP.
The target in assay [2] is Xenopus Sox11 with FLAG tag (xSox11-FLAG), expressed in HEK293 cells (Xenopus) (UniProt Q91731). The assay is described as follows: co-IP.

Results are given in words; binding and its absence hold for the method and conditions named. In cells and extracts the contact can be indirect. Some entries that bind do so weakly or less than the wild type. Sequences can lack the tags named with a protein.

B1: mouse NGN1 with MYC tag (mNGN1-MYC) (protein, UniProt P70660 1-244)
chain: MPAPLETCISDLDCSSSNSSSDLSSFLTDEEDCARLQPLASTSGLSVPARRSAPALSGASNVPGAQDEEQERRRRRGRARVRSEALLHSLRRSRRVKANDRERNRMHNLNAALDALRSVLPSFPDDTKLTKIETLRFAYNYIWALAETLRLADQGLPGGSARERLLPPQCVPCLPGPPSPASDTESWGSGAAASPCATVASPLSDPSSPSASEDFTYGPGDPLFSFPGLPKDLLHTTPCFIPYH
With B1, the results for the binding result in assay [1] and in assay [2] were “binds” and “no binding”, respectively.
